{"source": "PubChem BioAssay AID1259308 (NCATS, 2017)", "screen": "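Knock-downs that increase output of a recombinant reporter protein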 (primary screen)", "cell system": "human HEK293 embryonic kidney cells stably expressing firefly luciferase (HEK-CMV-Luc2-Hygro)", "reagent": "single siRNA against human genes, 0.8 pmol siRNA per well", "time to read-out": "72 h", "read-out": "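Reporter luminescence and viable-cell signal on separate replicate plates, given as percent of non-targeting control and median/MAD z-scores, plus per-cell luciferase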", "reading the numbers": "total luciferase, z-score: higher = more reporter protein produced", "hit rule": "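Active when the median/MAD z-score for overall luciferase is greater than 3; a gene was taken forward for validation with new siRNAs if at least two of its three siRNAs passed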", "calls": "active = raised luciferase; inactive = no rise", "note": "The whole screen tested about 59,000 reagents; this is a part drawn at random. Over the whole deposit, about 1,510 (2.6%) were called active. 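Calls use total luciferase alone and ignore viability, so some active siRNAs may act by altering cell number.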 Further read-outs or replicates are left out here."}
The opening 2 entries, ahead of the listing:
{"target gene": "RMND1 (required for meiotic nuclear division 1 homolog)", "PubChem SID": "SID160742720", "total luciferase, z-score": 0.793, "Call": "inactive"}
{"target gene": "RMND1 (required for meiotic nuclear division 1 homolog)", "PubChem SID": "SID160742721", "total luciferase, z-score": 2.42, "Call": "inactive"}

The listing, repeating the preview:
{"target gene": "RMND1 (required for meiotic nuclear division 1 homolog)", "PubChem SID": "SID160742720", "total luciferase, z-score": 0.793, "Call": "inactive"}
{"target gene": "RMND1 (required for meiotic nuclear division 1 homolog)", "PubChem SID": "SID160742721", "total luciferase, z-score": 2.42, "Call": "inactive"}
{"target gene": "RMND1 (required for meiotic nuclear division 1 homolog)", "PubChem SID": "SID160742722", "total luciferase, z-score": -1.8, "Call": "inactive"}
{"target gene": "PRAME (PRAME nuclear receptor transcriptional regulator)", "PubChem SID": "SID160736493", "total luciferase, z-score": -0.632, "Call": "inactive"}
{"target gene": "PRAME (PRAME nuclear receptor transcriptional regulator)", "PubChem SID": "SID160736494", "total luciferase, z-score": 0.0528, "Call": "inactive"}
{"target gene": "PRAME (PRAME nuclear receptor transcriptional regulator)", "PubChem SID": "SID160736495", "total luciferase, z-score": 3.83, "Call": "active"}
{"target gene": "SPINK8 (serine peptidase inhibitor Kazal type 8 (putative))", "PubChem SID": "SID160769857", "total luciferase, z-score": 0.384, "Call": "inactive"}
{"target gene": "SPINK8 (serine peptidase inhibitor Kazal type 8 (putative))", "PubChem SID": "SID160769858", "total luciferase, z-score": -1.15, "Call": "inactive"}
{"target gene": "SPINK8 (serine peptidase inhibitor Kazal type 8 (putative))", "PubChem SID": "SID160769859", "total luciferase, z-score": -0.114, "Call": "inactive"}
{"target gene": "NSD3 (nuclear receptor binding SET domain protein 3)", "PubChem SID": "SID160742464", "total luciferase, z-score": -0.257, "Call": "inactive"}
{"target gene": "NSD3 (nuclear receptor binding SET domain protein 3)", "PubChem SID": "SID160742465", "total luciferase, z-score": 0.0214, "Call": "inactive"}
{"target gene": "NSD3 (nuclear receptor binding SET domain protein 3)", "PubChem SID": "SID160742466", "total luciferase, z-score": 0.736, "Call": "inactive"}
